These results are taken from PMC7819943, “Rice protein-binding microarrays: a tool to detect cis-acting elements near promoter regions in rice”.

The list shows a part of the results.

This assay concerns the target T1, OsSMF1 (Oryza sativa, UniProt Q6ZLB0 1-436).
T1 sequence: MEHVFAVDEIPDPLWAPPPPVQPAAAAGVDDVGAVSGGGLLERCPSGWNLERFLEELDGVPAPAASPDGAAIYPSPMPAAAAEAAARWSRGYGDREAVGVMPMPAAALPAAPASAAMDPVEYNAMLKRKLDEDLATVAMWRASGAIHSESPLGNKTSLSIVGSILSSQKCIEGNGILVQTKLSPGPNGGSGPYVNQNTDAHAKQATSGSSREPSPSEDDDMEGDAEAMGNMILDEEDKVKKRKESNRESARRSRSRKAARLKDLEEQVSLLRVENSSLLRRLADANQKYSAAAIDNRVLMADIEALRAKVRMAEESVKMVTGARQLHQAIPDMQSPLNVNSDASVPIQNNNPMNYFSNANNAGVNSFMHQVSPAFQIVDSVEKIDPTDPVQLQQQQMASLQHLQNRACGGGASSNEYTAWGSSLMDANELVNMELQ
As to the kind of experiment: protein-binding microarray (RPBM); PBS, 2% BSA, 51.3 ng/ul salmon testes DNA, 50 uM zinc acetate, 200 nM TF, 25 C, 1 h; high values mean tight binding. The settings on record: protein: recombinant; tags: N-terminal polyhistidine and DsRed monomer fusion (pET32a); chain copies: 2; label: CyDye5-dUTP incorporated in the synthesized complementary strand; 3' TTTTT single-stranded linker to array surface; dsDNA, one strand shown. In short, it runs like this:
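Transcription factors were made in E. coli BL21-CodonPlus as N-terminal fusions to a polyhistidine tag and DsRed, then purified on Ni–NTA. After primer extension with Cy5-dUTP and blocking with 2% BSA, a custom Agilent array was exposed for 1 h at 25 °C to 200 nM protein in PBS, 2% BSA, salmon testes DNA and 50 µM zinc acetate. Washed arrays were scanned on an Axon 4000B, and the binding signal is per-feature fluorescence intensity in arbitrary units.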
Consider “TCATTTGCTCTTTGAGTGATACAGTACTATGCTTCCCCTTCGGAGTCACCTAGTGCAG”, for which the binding signal was 3690 fluorescence intensity (a.u.).

On to “AAAGCCTAATGGGCAATCGATCGCCCCGAGCTATCACCCCCGGAGTCACCTAGTGCAG”, for which the binding signal is 3210 fluorescence intensity (a.u.).

Take “CTACACACACCCGTGCCTCGCACCACGTATAACACGGTCGCGGAGTCACCTAGTGCAG”: the binding signal is 3470 fluorescence intensity (a.u.).

On to “TATCTCCACAAGGAAAACACGATGGAGTGACGAAACACCTCGGAGTCACCTAGTGCAG”, for which the binding signal is 3580 fluorescence intensity (a.u.).

“CAATGGCCTCCACCGCACCTCCCGCTTCCACGACGCCATGCGGAGTCACCTAGTGCAG”: the binding signal was 3510 fluorescence intensity (a.u.). In the case of “TTGGATTCGGAGCTATGTCAAACTGATTTGATGTGAATTTCGGAGTCACCTAGTGCAG”, the binding signal was 3320 fluorescence intensity (a.u.). Consider “TGGGTGTAATTGTTTCCTCGATTTCGCTGGCATGTACTTTCGGAGTCACCTAGTGCAG”, for which the binding signal was 3780 fluorescence intensity (a.u.). Regarding “CGTTTTCCCAGGTTTACACGTGGCACAAGTGATTGGGACGCGGAGTCACCTAGTGCAG”, the binding signal is 16700 fluorescence intensity (a.u.). For the sequence “TTGGCTATACTATTGAACTTGCTCTAAAACGTGACTAGGGCGGAGTCACCTAGTGCAG”, the binding signal was 3780 fluorescence intensity (a.u.).

Turning to “CTATCTCCCCAAACCTGCCATGTAATCTTACCTCTTTGCTCGGAGTCACCTAGTGCAG”, the binding signal was 4020 fluorescence intensity (a.u.).

As to “TGGTGCGCCGCGCTCCAGCGCGGCCGTGTTCGTGAGGTCACGGAGTCACCTAGTGCAG”, the binding signal is 3640 fluorescence intensity (a.u.). With “TAAAACACACCTTAATAGACAACCAGTCAGTTGATCAGCGCGGAGTCACCTAGTGCAG” the figure was 3400 fluorescence intensity (a.u.); with “TCACGCTCTCAACGCTGCTGTGTCACGTCACGTCACGCGCCGGAGTCACCTAGTGCAG”, 16400 fluorescence intensity (a.u.). With “CTATCGAATGTGACGCATATAACAATCAACAGAACACCGTCGGAGTCACCTAGTGCAG” the figure was 3250 fluorescence intensity (a.u.).

As for “ACAGCACCGCTCACACGCGCCACGCATGCCGCTCCCATTCCGGAGTCACCTAGTGCAG”, the binding signal is 8200 fluorescence intensity (a.u.).

Consider “GAGAATTCTCCACGAAAAGAGGAGAACGAACCACATCAAACGGAGTCACCTAGTGCAG”, for which the binding signal was 3380 fluorescence intensity (a.u.). For the sequence “GCGCGGCGAGTCTGGTCGACTCATCGCCGATCGATTGACCCGGAGTCACCTAGTGCAG”, the binding signal was 3760 fluorescence intensity (a.u.). Take “ACCTGGCAGCGGTGACTCCTCCTCGTCTACTCCCTCGCCGCGGAGTCACCTAGTGCAG”: the binding signal was 3210 fluorescence intensity (a.u.). As for “GCACGGCACGGCTACTCGTGCCGTGCCGGCACGGCCCGTTCGGAGTCACCTAGTGCAG”, the binding signal is 3670 fluorescence intensity (a.u.). On to “TGCGCAGGGGTGGAGGGGATCGTGAGCAATGCGGACAATTCGGAGTCACCTAGTGCAG”, for which the binding signal is 5070 fluorescence intensity (a.u.).

In the case of “AGCGAGAAGGTAGAAACATCGACAGTAGCACTTGGCAGTGCGGAGTCACCTAGTGCAG”, the binding signal is 3280 fluorescence intensity (a.u.).

For the sequence “TTCCTTATACGTGGAATGCCATACGTGGTTGTGATTTCTCCGGAGTCACCTAGTGCAG”, the binding signal was 5440 fluorescence intensity (a.u.). “TTTGTTTTGTATTTGGTAACAGTGAGTCATTTAGAAATTGCGGAGTCACCTAGTGCAG”: the binding signal is 6190 fluorescence intensity (a.u.). In the case of “AGCACCACGGTCAATGCCACGTATGTGCCACGTCATCCAACGGAGTCACCTAGTGCAG”, the binding signal is 46600 fluorescence intensity (a.u.). In the case of “TTCCCTCACGTCCAAACCAAACCAGCTCACAGAATCGCACCGGAGTCACCTAGTGCAG”, the binding signal was 18800 fluorescence intensity (a.u.). Take “AAGACGAATGGTCTTATATGTCAATGACGTCATATATTAACGGAGTCACCTAGTGCAG”: the binding signal is 9420 fluorescence intensity (a.u.). For the sequence “AAGAAGAGGGGATGAGGTCTCCAGCGCCTAGTCGCAGGGTCGGAGTCACCTAGTGCAG”, the binding signal was 3310 fluorescence intensity (a.u.). With “TCACACATTCTCCCATGCTGTACTAATTGTATTATGATAACGGAGTCACCTAGTGCAG” the figure was 3200 fluorescence intensity (a.u.); with “TCAACCTCAAGCACATGGTTTGTTGCAAACTACTAAAATACGGAGTCACCTAGTGCAG”, 34600 fluorescence intensity (a.u.). On to “CCTTCTTAACAGTCTGTGAAGCTCTGCCATCTCACCGTCTCGGAGTCACCTAGTGCAG”, for which the binding signal is 3820 fluorescence intensity (a.u.).

For “CAAATGATGGTCTACACGTAAGCCTGAAAGATTGTCGGTGCGGAGTCACCTAGTGCAG”, the binding signal was 4520 fluorescence intensity (a.u.). With “AAACTCCAGAAGCTTTTCCACTTCCTAGTGACGTGGCAATCGGAGTCACCTAGTGCAG” the figure was 26700 fluorescence intensity (a.u.). As for “TATTTAATTACCTCACGCACATTCTTTTCTCAGCAAATCACGGAGTCACCTAGTGCAG”, the binding signal was 3620 fluorescence intensity (a.u.). Consider “CCTCGACAGATTCCATGAGCGCACTAATCCCAGTGCTCTGCGGAGTCACCTAGTGCAG”, for which the binding signal was 3180 fluorescence intensity (a.u.). In the case of “ACGGCATGAAATCATGGTGCTGCTGCTCCTGCAGCGCGGCCGGAGTCACCTAGTGCAG”, the binding signal was 20300 fluorescence intensity (a.u.). “TACCCGCAGCCACCCGCCGCTGACGGTCAACCCACCTTCGCGGAGTCACCTAGTGCAG”: the binding signal is 3790 fluorescence intensity (a.u.). Turning to “GTAAAGTTTTAACGTGTTACATCGGGTATTATATAGTGTGCGGAGTCACCTAGTGCAG”, the binding signal is 3660 fluorescence intensity (a.u.). “TTCTTTCTGTGCATTCCAGGTCGGATTTCGGGCACTTCGCCGGAGTCACCTAGTGCAG”: the binding signal is 3550 fluorescence intensity (a.u.). For the sequence “GGGCAGGTGGGGAGGAGAGCGGGATGAGGTGGAAGGGGTCCGGAGTCACCTAGTGCAG”, the binding signal is 6070 fluorescence intensity (a.u.). Turning to “AAGATGCTGACCTGCCAAGTAAACTATACAACAATTCCCTCGGAGTCACCTAGTGCAG”, the binding signal was 3270 fluorescence intensity (a.u.). As for “CGCAGAGGCTGCTGATGTAATCACGTTCCATATGAAAAGGCGGAGTCACCTAGTGCAG”, the binding signal is 4070 fluorescence intensity (a.u.). Consider “CTTGTATCTAACTTGCAGTTACATTTAGTTCCAGTGCACTCGGAGTCACCTAGTGCAG”, for which the binding signal is 4620 fluorescence intensity (a.u.).
